Measurements from PubChem BioAssay AID445 (National Center for Advancing Translational Sciences (NCATS), 2006).
The other results are listed elsewhere or left out. These are further read-outs of the screen, such as a control signal, another cell line or another target. No call is given for them. Compounds called inactive in the main read-out are mostly missing here. The note in brackets gives the kind of curve behind each potency; many fits are weak.

Assay: IkB Signaling
Conditions: ABC-DLBCL IkBa-CBG/CBR dual luciferase ratio (green luciferase fused to IkBa over red control in OCI-Ly3 lymphoma cells), 4 h; measured here: control luc red channel unless noted
In short: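 Curves were fitted separately to fusion (green), unfused (red) and ratio luminescence, then classed by r2, magnitude and activity. Cells: OCI-Ly3, 4 h compound plus doxycycline at 37C; 10 uM MG-132 defined full response.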

Row | SMILES | AC50
1 | Cc1cccc(NC(=O)CSc2nc3n[nH]c(C)c3c(=N)n2-c2cccc(Cl)c2)c1 | 12.6 µM [falling, partial curve]
2 | Cc1cc(C)cc(C(=O)NCCc2sc(-c3ccc(F)cc3)nc2C)c1 | 10 µM [falling, partial curve]
3 | CCCOc1ccc(C(=O)N2CCC(c3nc4ccccc4s3)CC2)cc1 | 20 µM [falling, partial curve]
4 | O=C(C1CC1)N1CCc2cc(Br)cc(S(=O)(=O)Nc3ccc(F)c(F)c3)c21 | 10 µM [falling, partial curve]
5 | O=S(=O)(NCC(c1ccco1)N1CCN(c2ccccc2)CC1)c1cc(F)ccc1F (stereo not given) | 25.1 µM [falling, single point]
6 | Cn1c(=O)oc2ccc(C(=O)CSc3nnnn3-c3ccccc3)cc21 | 31.6 µM [rising, partial curve] [measured here: IkB-luc green channel]
7 | N#Cc1c(N2CCN(C(=O)c3ccco3)CC2)nc(-c2ccccc2)c2c1CCCC2 | 2.51 µM [falling, full curve, poor fit]
8 | CNC(=O)c1ccccc1NC(=O)c1ccc(C)c(S(=O)(=O)N2CCCCC2)c1 | 25.1 µM [falling, partial curve]
9 | CCc1ccc2oc(-c3ccc(C)c(NC(=O)Cc4ccccc4)c3)nc2c1 | 0.158 µM [falling, full curve]
10 | CC(C)(C)OC(=O)N1CCC(c2c(C(=O)NCCN3CCOCC3)cnn2-c2cccc(Cl)c2)CC1 | 0.316 µM [falling, full curve, poor fit]
11 | CC(=O)Oc1ccccc1N1C(=O)c2ccc(C(=O)O)cc2C1=O | 3.98 µM [falling, partial curve]
12 | O=C(c1cc(-c2ccc(F)cc2)on1)N1CCN(c2ccc(F)cc2)CC1 | 3.16 µM [falling, full curve]
13 | COc1ccc(C2=NCC(CSc3nccc(=O)[nH]3)S2)cc1 (stereo not given) | 39.8 µM [falling, single point]
14 | Cn1nc(C(=O)N2CCN(c3ccccc3F)CC2)c2c1-c1ccccc1S(=O)(=O)C2 | 5.01 µM [falling, full curve, poor fit]
15 | CCOC(=O)c1ccccc1NC(=O)c1cc2ccc3cccnc3c2[nH]1 | 2.51 µM [falling, partial curve]
16 | CCCOC(=O)CSc1nnc(-c2ccccc2)o1 | 3.16 µM [rising, partial curve]
17 | CC(C)c1ccc(CNc2nc(-c3ccco3)nn2S(=O)(=O)c2ccc(F)cc2)cc1 | 12.6 µM [falling, partial curve]
18 | CC(C)(C)C1CCc2onc(C(=O)Nc3sc4c(c3C#N)CCCC4)c2C1 (stereo not given) | 0.0794 µM [falling, full curve]
19 | Cc1cccc(NC(=O)N2CCC(N3CCN(Cc4ccccc4)C(=O)C3=O)CC2)c1C | 39.8 µM [rising, single point]
20 | Cc1ccccc1CSc1nncn1N | 1.26 µM [falling, full curve]

Part of the list above, reformatted.
N#Cc1c(N2CCN(C(=O)c3ccco3)CC2)nc(-c2ccccc2)c2c1CCCC2
  AC50: 2.51 µM [falling, full curve, poor fit]
CCc1ccc2oc(-c3ccc(C)c(NC(=O)Cc4ccccc4)c3)nc2c1
  AC50: 0.158 µM [falling, full curve]
CC(C)(C)OC(=O)N1CCC(c2c(C(=O)NCCN3CCOCC3)cnn2-c2cccc(Cl)c2)CC1
  AC50: 0.316 µM [falling, full curve, poor fit]

(continued)

Row | SMILES | AC50
21 | CCOC(=O)c1c(C)[nH]c(C(=O)Cn2c(=O)c3c(ncn3CC)n(Cc3ccccc3)c2=O)c1C | 25.1 µM [falling, partial curve]
22 | Cc1ccc(C)c(-n2c(SCC(=O)Nc3nnc(C)s3)nnc2-c2ccoc2C)c1 | 39.8 µM [falling, single point]
23 | O=C(Cn1cc(C(=O)c2ccccc2)c(=O)c2cc3c(cc21)OCCO3)Nc1ccc(F)c(F)c1 | 12.6 µM [falling, partial curve]
24 | Cc1ccc(C)c(N2CCN(S(=O)(=O)c3ccc(C(=O)N(C)C)s3)CC2)c1 | 15.8 µM [falling, partial curve]
25 | CCn1nnc2cc(C(=O)Nc3cc(C)ccc3C)ccc21 | 31.6 µM [falling, partial curve]
26 | CCOc1ccc(CC(=O)NCc2ccc3c(c2)CCN3C(=O)c2ccccc2)cc1OCC | 6.31 µM [falling, single point]
27 | COc1ccc(NC(=O)CC2C(=O)N(c3cccc(OC)c3)C(=O)N2CCC2=CCCCC2)cc1 (stereo not given) | 20 µM [falling, single point]
28 | Cc1ccc(NS(=O)(=O)c2ccc3nc(-c4ccccc4)[nH]c3c2)c(Br)c1 | 0.501 µM [falling, partial curve]
29 | Cc1ccc(Nc2nc3ccc(C(=O)c4ccccc4)cc3n3c(C)nnc23)c(C)c1 | 31.6 µM [falling, single point]
30 | Cc1sc2ncn(CC(=O)N(C)c3ccc(C(C)C)cc3)c(=O)c2c1S(=O)(=O)N1CCC(C)CC1 | 15.8 µM [falling, partial curve]
31 | CC1CCC(NC(=O)C2(C)Cc3ccccc3C(=O)N2Cc2ccc(Cl)cc2)CC1 (stereo not given) | 0.0158 µM [falling, full curve, poor fit]
32 | COc1ccccc1-c1cc(C(=O)Nc2cc(C)on2)no1 | 0.501 µM [falling, full curve]
33 | CC(=O)c1cccc(NC(=O)CN2C(=O)CC(c3ccc(C)cc3C)=Nc3ccccc32)c1 | 5.01 µM [falling, partial curve]
34 | O=C(/C=C/c1ccc(Cl)cc1)N1CCC(c2nc3ccccc3o2)CC1 | 0.501 µM [falling, full curve]
35 | CCCCN(CC)CCCNC(=O)c1cn(CC)c2ccc(S(=O)(=O)N3CCc4ccccc4C3)cc2c1=O | 20 µM [falling, single point]
36 | CC(=O)Nc1nnc2n1CCS2 | 0.2 µM [falling, full curve, poor fit]
37 | Cc1ccc(CN2CCC(CNC(=O)Nc3ccc(C)c(C)c3)C2)cc1 (stereo not given) | 15.8 µM [falling, partial curve]
38 | Cc1noc(C)c1COC(=O)c1cc2c3ccccc3n(C)c2s1 | 20 µM [falling, partial curve]
39 | COc1ccc(C)cc1NC(=O)c1oc2ccc(S(=O)(=O)N3CCC4(CC3)OCCO4)cc2c1C | 20 µM [falling, single point]
40 | COC(=O)c1ccc(COc2ccc3c(C)c(C)c(=O)oc3c2C)o1 | 12.6 µM [falling, partial curve]
